Experimental data taken from patent US20250154171A1, “RAS INHIBITORS” (Revolution Medicines, Inc., priority 2023, published 2025).
Some results were stated once for a whole list of compounds, not compound by compound.

Amino acid sequences for entries named in this document (tags omitted). A change or cut given only in a name is not applied to a line headed by its entry. Residues count along the entry.
UniProt P01116, 1-188 isoform P01116-2 G12A: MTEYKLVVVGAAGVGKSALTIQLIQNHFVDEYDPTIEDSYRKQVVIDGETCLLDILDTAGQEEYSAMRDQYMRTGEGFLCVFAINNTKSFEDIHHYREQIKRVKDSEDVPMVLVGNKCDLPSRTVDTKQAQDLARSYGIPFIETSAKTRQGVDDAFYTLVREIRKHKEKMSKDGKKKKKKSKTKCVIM
UniProt P01116, 1-188 isoform P01116-2 G12V: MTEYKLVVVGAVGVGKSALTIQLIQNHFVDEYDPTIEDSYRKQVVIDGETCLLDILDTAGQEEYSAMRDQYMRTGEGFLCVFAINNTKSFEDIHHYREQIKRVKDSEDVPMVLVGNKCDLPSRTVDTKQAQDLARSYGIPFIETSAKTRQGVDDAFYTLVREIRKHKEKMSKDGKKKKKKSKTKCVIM
UniProt P62937, whole entry: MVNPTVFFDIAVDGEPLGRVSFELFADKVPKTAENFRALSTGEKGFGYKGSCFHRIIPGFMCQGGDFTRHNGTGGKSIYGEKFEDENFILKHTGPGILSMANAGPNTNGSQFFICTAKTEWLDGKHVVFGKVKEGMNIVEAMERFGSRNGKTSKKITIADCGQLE

Experiments:
K-RasG12A = K-RasG12A (Homo sapiens, UniProt P01116+P62937, G12A); experiment: Disruption of BRAF RBD interaction with K-Ras (TR-FRET / MOA assay), K-RasG12A; assay type: biochemical; details: TR-FRET with cyclophilin A and GST-BRAF RBD, read-out: IC50 with respect to K-RasG12A (disruption of BRAF RBD interaction)
K-RasG12V = K-RasG12V (Homo sapiens, UniProt P01116+P62937, G12V); experiment: Disruption of BRAF RBD interaction with K-Ras (TR-FRET / MOA assay), K-RasG12V; assay type: biochemical; details: TR-FRET with cyclophilin A and GST-BRAF RBD, read-out: IC50 with respect to K-RasG12V (disruption of BRAF RBD interaction)
Capan-1 (K-Ras G12V) = experiment: CellTiter-Glo cell viability assay, Capan-1; assay type: cell-based, human; details: 5-day treatment, Capan-1 and/or NCI-H2009 versus A375

SMILES | IC50 (K-RasG12A) | IC50 (K-RasG12V) | decrease in cell viability with respect to Capan-1 and/or NCI-H2009 versus wild-type KRAS (A375) (Capan-1 (K-Ras G12V))
CO[C@@H](C)c1ncccc1-c1c2c3cc(ccc3n1C1CN(C3CC3)C1)-c1csc(n1)[C@@H](N1CC3(CCCN3C3CCN(C)CC3)C1)[C@H](NC(=O)[C@H]1[C@H](C)[C@@H]1C)C(=O)N1CCC[C@H](N1)C(=O)OCC(C)(C)C2 (atropisomer, axis not shown) [Example A1075] | < 1000 nM | < 1000 nM | greater decrease in cell viability
CO[C@@H](C)c1ncccc1-c1c2c3cc(ccc3n1C1CN(C3CC3)C1)-c1csc(n1)[C@@H](N1CC3(CCN3C3COC3)C1)[C@H](NC(=O)[C@@H]1[C@@H](C)[C@H]1c1ccncn1)C(=O)N1CCC[C@H](N1)C(=O)OCC(C)(C)C2 (atropisomer, axis not shown) [Example A1076] | < 1000 nM | < 1000 nM | greater decrease in cell viability
CO[C@@H](C)c1ncccc1-c1c2c3cc(ccc3n1C1CN(C3CC3)C1)-c1csc(n1)[C@@H](N1CC3(CCN3C)C1)[C@H](NC(=O)[C@@H]1[C@@H](C)[C@H]1c1ccncn1)C(=O)N1CCC[C@H](N1)C(=O)OCC(C)(C)C2 (atropisomer, axis not shown) [Example A1077] | < 1000 nM | < 1000 nM | greater decrease in cell viability
CO[C@@H](C)c1ncccc1-c1c2c3cc(ccc3n1C1CN(C3CC3)C1)-c1csc(n1)[C@@H](N1CC3(CCCN3S(C)(=O)=O)C1)[C@H](NC(=O)[C@@H]1[C@@H](C)[C@H]1c1ccncn1)C(=O)N1CCC[C@H](N1)C(=O)OCC(C)(C)C2 (atropisomer, axis not shown) [Example A1078] | < 1000 nM | < 1000 nM | greater decrease in cell viability
CO[C@@H](C)c1ncccc1-c1c2c3cc(ccc3n1C1CN(C3CC3)C1)-c1csc(n1)[C@@H](N1CC3(CCN3C3COC3)C1)[C@H](NC(=O)[C@H]1[C@H](C)[C@@H]1C)C(=O)N1CCC[C@H](N1)C(=O)OCC(C)(C)C2 (atropisomer, axis not shown) [Example A1079] | < 1000 nM | < 1000 nM | greater decrease in cell viability
CO[C@@H](C)c1ncccc1-c1c2c3cc(ccc3n1C1CN(C3CC3)C1)-c1csc(n1)[C@@H](N1CC3(CCN3C)C1)[C@H](NC(=O)[C@H]1[C@H](C)[C@@H]1C)C(=O)N1CCC[C@H](N1)C(=O)OCC(C)(C)C2 (atropisomer, axis not shown) [Example A1080] | < 1000 nM | < 1000 nM | greater decrease in cell viability
CO[C@@H](C)c1ncccc1-c1c2c3cc(ccc3n1C1CN(C3CC3)C1)-c1csc(n1)[C@@H](N1CC3(CCCN3C3COC3)C1)[C@H](NC(=O)[C@@H]1[C@@H](C)[C@H]1c1ccncn1)C(=O)N1CCC[C@H](N1)C(=O)OCC(C)(C)C2 (atropisomer, axis not shown) [Example A1081] | < 1000 nM | < 1000 nM | greater decrease in cell viability
CO[C@@H](C)c1ncccc1-c1c2c3cc(ccc3n1C1CN(C3CC3)C1)-c1coc(n1)[C@@H](N1CC3(CCN3C3CCN(C)CC3)C1)[C@H](NC(=O)[C@@H]1[C@@H](C)[C@H]1c1ccncn1)C(=O)N1CCC[C@H](N1)C(=O)OCC(C)(C)C2 (atropisomer, axis not shown) [Example A1082] | < 1000 nM | < 1000 nM | greater decrease in cell viability
CO[C@@H](C)c1ncc(N2CCN(C3CC3)CC2)cc1-c1c2c3cc(ccc3n1CCOC1CCOCC1)-c1csc(n1)[C@@H](N1CC3(COC3)C1)[C@H](NC(=O)[C@@H]1[C@@H](C)[C@H]1C(=O)N1CCN(C)CC1)C(=O)N1CCC[C@H](N1)C(=O)OCC(C)(C)C2 (atropisomer, axis not shown) [Example A1083] | < 1000 nM | < 1000 nM | greater decrease in cell viability
CO[C@@H](C)c1ncccc1-c1c2c3cc(ccc3n1C1CN(C3CC3)C1)-c1csc(n1)[C@@H](N1CC3(COC3)C1)[C@H](NC(=O)[C@@H]1[C@@H](C)[C@H]1c1ccncn1)C(=O)N1CCC[C@H](N1)C(=O)OCC(C)(C)C2 (atropisomer, axis not shown) [Example A1084] | < 1000 nM | < 1000 nM | greater decrease in cell viability
CCn1c(-c2cc(N3CCN(C4CC4)CC3)cnc2[C@H](C)OC)c2c3cc(ccc31)-c1cc(O)cc(c1)C[C@H](NC(=O)[C@H](C(C)C)N(C)C(=O)N1CCC[C@H]1Cc1cc(F)cc3ncccc13)C(=O)N1CCC[C@H](N1)C(=O)OCC(C)(C)C2 (atropisomer, axis not shown) [Example A1085] | < 1000 nM | < 1000 nM | greater decrease in cell viability
CO[C@@H](C)c1ncccc1-c1c2c3cc(ccc3n1C1CN(C3CC3)C1)-c1coc(n1)[C@@H](N1CC3(CCCN3C)C1)[C@H](NC(=O)[C@@H]1[C@@H](C)[C@H]1c1ccncn1)C(=O)N1CCC[C@H](N1)C(=O)OCC(C)(C)C2 (atropisomer, axis not shown) [Example A1086] | < 1000 nM | < 1000 nM | greater decrease in cell viability
CCn1c(-c2cc(N3CCN(C4CC4)CC3)cnc2[C@H](C)OC)c2c3cc(ccc31)-c1csc(n1)[C@@H](N(C)C)[C@H](NC(=O)[C@H](C(C)C)N(C)C(=O)N1CCC[C@H]1Cc1cc(F)cc3ncccc13)C(=O)N1CCC[C@H](N1)C(=O)OCC(C)(C)C2 (atropisomer, axis not shown) [Example A1087] | < 1000 nM | < 1000 nM | greater decrease in cell viability
CCn1c(-c2cc(N3CCN(C4CC4)CC3)cnc2[C@H](C)OC)c2c3cc(ccc31)-c1cccc(c1)C[C@H](NC(=O)[C@H](C(C)C)N(C)C(=O)N1CCC[C@H]1Cc1cc(F)cc3ncccc13)C(=O)N1CCC[C@H](N1)C(=O)OCC(C)(C)C2 (atropisomer, axis not shown) [Example A1088] | < 1000 nM | < 1000 nM | greater decrease in cell viability
CCn1c(-c2cccnc2[C@H](C)OC)c2c3cc(ccc31)-c1csc(n1)C[C@H](NC(=O)[C@H](C(C)C)N(C)C(=O)N1CCC[C@H]1Cc1cc(F)cc3ncccc13)C(=O)N1CCC[C@H](N1)C(=O)OCC(C)(C)C2 (atropisomer, axis not shown) [Example A1089] | < 1000 nM | < 1000 nM | greater decrease in cell viability
CO[C@@H](C)c1ncccc1-c1c2c3cc(ccc3n1C1CN(C3CC3)C1)-c1coc(n1)[C@@H](N1CC3(CCN3C)C1)[C@H](NC(=O)[C@@H]1[C@@H](C)[C@H]1c1ccncn1)C(=O)N1CCC[C@H](N1)C(=O)OCC(C)(C)C2 (atropisomer, axis not shown) [Example A1090] | < 1000 nM | < 1000 nM | greater decrease in cell viability
CO[C@@H](C)c1ncccc1-c1c2c3cc(ccc3n1C1CN(C3CC3)C1)-c1coc(n1)[C@@H](N1CC3(CCN3C)C1)[C@H](NC(=O)[C@H]1[C@H](C)[C@@H]1C)C(=O)N1CCC[C@H](N1)C(=O)OCC(C)(C)C2 (atropisomer, axis not shown) [Example A1091] | < 1000 nM | < 1000 nM | greater decrease in cell viability
CO[C@@H](C)c1ncc(N2CCN(C3CC3)CC2)cc1-c1c2c3cc(ccc3n1CCOC1CCOCC1)-c1csc(n1)[C@@H](N1CC3(COC3)C1)[C@H](NC(=O)[C@@H]1[C@@H](C)[C@H]1C(=O)OCc1ccccc1)C(=O)N1CCC[C@H](N1)C(=O)OCC(C)(C)C2 (atropisomer, axis not shown) [Example A1093] | < 1000 nM | < 1000 nM | greater decrease in cell viability
CO[C@@H](C)c1ncc(N2CCN(C3CC3)CC2)cc1-c1c2c3cc(ccc3n1CCOC1CCOCC1)-c1csc(n1)[C@@H](N1CC3(COC3)C1)[C@H](NC(=O)[C@H](C(C)C)N(C)C(=O)N1CC[C@H](c3ccccc3)C1)C(=O)N1CCC[C@H](N1)C(=O)OCC(C)(C)C2 (atropisomer, axis not shown) [Example A1094] | < 1000 nM | < 1000 nM | greater decrease in cell viability
CCn1c(-c2cc(N3CCN(C4CC4)CC3)cnc2[C@H](C)OC)c2c3cc(ccc31)-c1csc(n1)[C@@H](N1CC3(COC3)C1)[C@H](NC(=O)[C@H](C(C)C)N(C)C(=O)N1CCC[C@H]1Cc1cc(F)cc3ncccc13)C(=O)N1CCC[C@H](N1)C(=O)OCC(C)(C)C2 (atropisomer, axis not shown) [Example A1096] | < 1000 nM | < 1000 nM | greater decrease in cell viability
CCn1c(-c2cc(N3CCN(C4CC4)CC3)cnc2[C@H](C)OC)c2c3cc(ccc31)-c1csc(n1)[C@@H](OC)[C@H](NC(=O)[C@H](C(C)C)N(C)C(=O)N1CCC[C@H]1Cc1cc(F)cc3ncccc13)C(=O)N1CCC[C@H](N1)C(=O)OCC(C)(C)C2 (atropisomer, axis not shown) [Example A1097] | < 1000 nM | < 1000 nM | greater decrease in cell viability
